From US20160017326A1, “MICRORNAS AS FUNCTIONAL MEDIATORS AND BIOMARKERS OF BONE METASTASIS” (THE TRUSTEES OF PRINCETON UNIVERSITY, priority 2013, published 2016)
At least one structure is not confirmed: it was looked up by name or label, or the drawing left a doubt.

Test system: SCP28 breast cancer cells
Test: Experimental bone metastasis: intracardiac SCP28 cells in nude mice, BLI, X-ray, histology
Assay type: in vivo, mouse
Details: 100 μg/kg i.v., compared with control treatment group
Text: Hindlimb bones were excised from mice at the end point of each experiment, immediately following X-ray and BLI. Hind limb bones were fixed in 10% neutral-buffered formalin, washed and decalcified in a solution of 10% EDTA for 2 weeks. One limb from each mouse was stored in 70% ethanol for μCT analysis and Von Kossa staining, while the other limb was embedded in paraffin for hematoxylin and eosin (H&E), tartrate-resistant acid phosphatase (TRAP), or immunohistochemical staining. Non-decalcified sections were embedded in resin using the Osteo-bed Bone Embedding Kit (Sigma Aldrich, EM0200) before sectioning, followed by Von Kossa staining. Briefly, sections were rehydrated to H2O, followed by submersion in 1% silver nitrate and exposure to UV light for 5 minutes. […] For quantitative analysis of lesion area, a 5× objective was used to focus on the tumor region of interest and images were acquired using an AxioCamICc3 camera set to an exposure of 50 ms. Lesions that were larger than the field of view were quantified by acquiring multiple images to encompass the entire lesion and combined in Adobe Photoshop CS5. Lesion area was quantified by outlining the region(s) of interest and quantifying lesion area. Osteoclast number was assessed as multinucleated TRAP^+ cells along the tumor-bone interface and reported as number/mm of interface as previously reported (Sethi et al., 2011). […]

## O=P(O)(O)C(O)(Cn1ccnc1)P(=O)(O)O [ZOMETA™, zoledronic acid, reference compound]
  tumor burden by BLI: significant decrease in tumor burden
